Test results taken from article PMC4222359.
Results are given in words; binding and its absence hold for the method and conditions named. In cells and extracts the contact can be indirect. Some results given as binding are weak or reduced against the parent protein; the word gives no strength. For some of these results: Tags and fused reporters may be left off the sequences shown.

Amino acid sequences for entries named in this document (tags omitted).
UniProt P54098: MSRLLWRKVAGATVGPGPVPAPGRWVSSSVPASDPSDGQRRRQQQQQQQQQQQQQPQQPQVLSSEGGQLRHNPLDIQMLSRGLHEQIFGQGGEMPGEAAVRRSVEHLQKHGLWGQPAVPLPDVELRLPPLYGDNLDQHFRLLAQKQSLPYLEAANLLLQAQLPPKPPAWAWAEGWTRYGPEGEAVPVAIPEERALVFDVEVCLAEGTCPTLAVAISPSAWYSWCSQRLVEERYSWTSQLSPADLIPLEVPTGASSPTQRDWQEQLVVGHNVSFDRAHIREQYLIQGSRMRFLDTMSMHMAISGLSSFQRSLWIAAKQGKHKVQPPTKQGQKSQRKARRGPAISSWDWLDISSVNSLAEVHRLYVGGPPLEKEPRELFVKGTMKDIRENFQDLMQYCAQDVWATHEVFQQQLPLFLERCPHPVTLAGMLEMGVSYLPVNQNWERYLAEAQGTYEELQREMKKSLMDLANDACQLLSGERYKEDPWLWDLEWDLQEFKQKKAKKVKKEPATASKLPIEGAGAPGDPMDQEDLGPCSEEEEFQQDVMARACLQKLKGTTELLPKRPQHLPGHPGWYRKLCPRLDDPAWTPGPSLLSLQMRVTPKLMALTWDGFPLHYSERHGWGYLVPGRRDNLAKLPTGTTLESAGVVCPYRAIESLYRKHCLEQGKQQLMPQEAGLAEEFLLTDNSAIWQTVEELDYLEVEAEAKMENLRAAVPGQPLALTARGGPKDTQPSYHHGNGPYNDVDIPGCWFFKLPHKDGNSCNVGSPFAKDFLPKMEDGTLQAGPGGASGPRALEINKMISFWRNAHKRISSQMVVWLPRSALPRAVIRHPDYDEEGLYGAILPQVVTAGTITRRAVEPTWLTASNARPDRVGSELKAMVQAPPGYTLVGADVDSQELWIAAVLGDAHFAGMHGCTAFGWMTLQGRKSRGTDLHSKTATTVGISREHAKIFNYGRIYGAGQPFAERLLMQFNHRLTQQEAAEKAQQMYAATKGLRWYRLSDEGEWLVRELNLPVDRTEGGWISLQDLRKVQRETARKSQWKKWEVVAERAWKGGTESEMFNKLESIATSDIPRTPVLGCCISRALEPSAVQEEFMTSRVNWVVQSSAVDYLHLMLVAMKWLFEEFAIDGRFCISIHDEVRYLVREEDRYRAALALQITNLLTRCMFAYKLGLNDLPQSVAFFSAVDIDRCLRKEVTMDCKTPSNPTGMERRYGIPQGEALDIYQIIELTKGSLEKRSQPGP

T1: MGME1.Flag.Strep2 (human) (UniProt Q9BQP7)
T1 sequence: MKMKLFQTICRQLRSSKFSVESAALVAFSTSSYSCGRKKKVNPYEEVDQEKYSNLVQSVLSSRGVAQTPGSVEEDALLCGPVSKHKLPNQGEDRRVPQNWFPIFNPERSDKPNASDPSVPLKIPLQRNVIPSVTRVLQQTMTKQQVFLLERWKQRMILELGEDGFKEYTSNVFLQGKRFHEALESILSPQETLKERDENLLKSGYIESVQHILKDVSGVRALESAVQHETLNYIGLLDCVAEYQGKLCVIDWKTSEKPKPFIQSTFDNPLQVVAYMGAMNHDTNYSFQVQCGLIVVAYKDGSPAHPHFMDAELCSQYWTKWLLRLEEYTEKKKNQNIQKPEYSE

T2: MGME1.Flag.Strep2 (human), Q9BQP7
T2 chain: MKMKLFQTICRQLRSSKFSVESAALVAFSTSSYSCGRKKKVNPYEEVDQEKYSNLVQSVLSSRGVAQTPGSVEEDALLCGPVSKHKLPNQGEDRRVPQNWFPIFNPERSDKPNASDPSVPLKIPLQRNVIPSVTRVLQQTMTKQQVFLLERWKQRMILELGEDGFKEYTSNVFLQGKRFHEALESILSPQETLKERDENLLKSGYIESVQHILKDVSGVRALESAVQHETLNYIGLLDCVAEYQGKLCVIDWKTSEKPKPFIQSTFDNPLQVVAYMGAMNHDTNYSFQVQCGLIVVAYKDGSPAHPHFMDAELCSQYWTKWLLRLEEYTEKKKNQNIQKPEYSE


Experiments:
[1] = biological target: T1, MGME1.Flag.Strep2 (human); assay: pull-down; MGME1.Flag.Strep2 as bait from mitochondrial lysates of induced HEK293T cells, streptavidin column; input and elution analysed by western blot; parental HEK293T as control
[2] = biological target: PolgA.Flag.Strep2 (human) (UniProt P54098); assay: pull-down; reciprocal: PolgA.Flag.Strep2 as bait from mitochondrial lysates of HEK293T cells, purified on a streptavidin column; input and elution analysed by western blot; parental HEK293T as control (legend calls it co-IP)
[3] = biological target: T2, MGME1.Flag.Strep2 (human), Q9BQP7; assay: pull-down; MGME1.Flag.Strep2 as bait from mitochondrial lysates of induced HEK293T cells, streptavidin column; input and elution analysed by western blot; parental HEK293T as control; details: remark: other sources report otherwise

binding [1]	Molecule	also measured
binds	PolgA (from UniProt P54098 1-1239) (enzyme)	
	MGME1 (enzyme, UniProt Q9BQP7 1-344) MKMKLFQTICRQLRSSKFSVESAALVAFSTSSYSCGRKKKVNPYEEVDQEKYSNLVQSVLSSRGVAQTPGSVEEDALLCGPVSKHKLPNQGEDRRVPQNWFPIFNPERSDKPNASDPSVPLKIPLQRNVIPSVTRVLQQTMTKQQVFLLERWKQRMILELGEDGFKEYTSNVFLQGKRFHEALESILSPQETLKERDENLLKSGYIESVQHILKDVSGVRALESAVQHETLNYIGLLDCVAEYQGKLCVIDWKTSEKPKPFIQSTFDNPLQVVAYMGAMNHDTNYSFQVQCGLIVVAYKDGSPAHPHFMDAELCSQYWTKWLLRLEEYTEKKKNQNIQKPEYSE	binding [2]: binds
no binding	mtSSB (protein, UniProt Q04837 17-148) ESETTTSLVLERSLNRVHLLGRVGQDPVLRQVEGKNPVTIFSLATNEMWRSGDSEVYQLGDVSQKTTWHRISVFRPGLRDVAYQYVKKGSRIYLEGKIDYGEYMDKNNVRRQATTIIADNIIFLSDQTKEKE	
	TFAM, Q00059 43-246 (protein) SSVLASCPKKPVSSYLRFSKEQLPIFKAQNPDAKTTELIRRIAQRWRELPDSKKKIYQDAYRAEWQVYKEEISRFKEQLTPSQIMSLEKEIMDKHLKRKAMTKKKELTLLGKPKRPRSAYNVYVAERFQEAKGDSPQEKLKTVKENWKNLSDSEKELYIQHAKEDETRYHNEMKSWEEQMIEVGRKDLLRRTIKKQRKYGAEEC	binding [3]: no binding
